Values quoted from earlier work as cited in paper PMC6052858 (Die Pharmazie, 2009).

Conditions: intraduodenal, GFJ administered concomitantly; ref Mohri et al. 2000; cited from earlier work

Compound: COC(=O)C1=C(C)NC(C)=C(C(=O)OC)C1c1ccccc1[N+](=O)[O-] [nifedipine]
- decrease in Tmax: 50%
